Assay results as given in paper doi:10.1101/2020.12.24.423824 (bioRxiv, 2020).
These are yes or no findings as the source states them, for the method shown. In cells and extracts the contact can be indirect. Some binding calls cover weakened binding; strength is not graded here. For some of these results: Where a sequence is shown, tags or fusion partners need not be part of it.

Chains of the proteins cited; added tags and fusions are not shown. Residues count along the entry.
UniProt Q99523, 78-831: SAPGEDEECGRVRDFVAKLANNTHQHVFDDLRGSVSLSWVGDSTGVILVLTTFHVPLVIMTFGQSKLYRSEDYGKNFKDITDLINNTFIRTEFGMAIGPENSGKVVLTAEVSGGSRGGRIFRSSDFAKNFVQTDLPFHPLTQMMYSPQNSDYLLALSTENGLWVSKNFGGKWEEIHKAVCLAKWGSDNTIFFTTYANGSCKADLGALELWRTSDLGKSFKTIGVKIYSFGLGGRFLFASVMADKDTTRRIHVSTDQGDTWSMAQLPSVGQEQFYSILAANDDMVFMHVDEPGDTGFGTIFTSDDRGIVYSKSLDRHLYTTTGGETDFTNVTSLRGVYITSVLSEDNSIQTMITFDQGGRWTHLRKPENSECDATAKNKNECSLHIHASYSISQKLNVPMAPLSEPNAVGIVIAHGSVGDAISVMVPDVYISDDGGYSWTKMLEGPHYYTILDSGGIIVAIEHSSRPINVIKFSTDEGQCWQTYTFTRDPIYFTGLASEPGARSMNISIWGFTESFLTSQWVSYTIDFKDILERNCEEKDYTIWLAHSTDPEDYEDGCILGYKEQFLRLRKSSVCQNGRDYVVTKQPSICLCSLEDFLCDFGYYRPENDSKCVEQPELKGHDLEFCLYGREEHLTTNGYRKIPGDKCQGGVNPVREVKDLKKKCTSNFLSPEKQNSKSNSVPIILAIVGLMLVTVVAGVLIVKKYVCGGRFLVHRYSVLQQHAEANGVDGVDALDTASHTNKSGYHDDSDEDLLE
UniProt Q9Y4G2, whole entry: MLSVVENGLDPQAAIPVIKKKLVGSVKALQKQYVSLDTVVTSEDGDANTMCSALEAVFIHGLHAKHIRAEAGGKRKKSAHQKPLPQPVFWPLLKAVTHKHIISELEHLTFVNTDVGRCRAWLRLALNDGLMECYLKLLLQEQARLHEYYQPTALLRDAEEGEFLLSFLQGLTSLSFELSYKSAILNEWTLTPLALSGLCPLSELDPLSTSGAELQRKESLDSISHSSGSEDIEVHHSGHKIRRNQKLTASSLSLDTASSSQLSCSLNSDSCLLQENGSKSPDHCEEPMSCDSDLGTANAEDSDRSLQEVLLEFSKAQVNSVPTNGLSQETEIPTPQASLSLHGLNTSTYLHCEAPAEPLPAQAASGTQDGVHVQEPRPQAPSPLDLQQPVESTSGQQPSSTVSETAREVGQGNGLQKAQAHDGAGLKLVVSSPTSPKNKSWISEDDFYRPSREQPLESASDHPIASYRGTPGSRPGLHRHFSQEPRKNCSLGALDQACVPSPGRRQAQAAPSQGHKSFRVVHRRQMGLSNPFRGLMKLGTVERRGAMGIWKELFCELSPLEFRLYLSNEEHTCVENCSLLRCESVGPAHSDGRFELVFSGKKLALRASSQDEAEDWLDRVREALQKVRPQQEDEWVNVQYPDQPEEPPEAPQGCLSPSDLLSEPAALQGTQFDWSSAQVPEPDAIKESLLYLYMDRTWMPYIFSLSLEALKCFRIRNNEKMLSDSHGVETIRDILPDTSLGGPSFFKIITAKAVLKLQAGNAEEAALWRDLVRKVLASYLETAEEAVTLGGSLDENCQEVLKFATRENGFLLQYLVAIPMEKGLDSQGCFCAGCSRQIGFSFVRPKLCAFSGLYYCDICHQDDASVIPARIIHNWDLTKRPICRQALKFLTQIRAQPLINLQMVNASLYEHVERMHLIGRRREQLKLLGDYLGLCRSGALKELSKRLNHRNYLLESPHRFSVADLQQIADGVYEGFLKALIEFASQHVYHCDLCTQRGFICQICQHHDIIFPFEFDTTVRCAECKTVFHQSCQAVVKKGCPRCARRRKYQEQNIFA

Experiments:
RlucII-Rab7A = RlucII-Rab7A (UniProt P51149 1-207); assay: FRET or BRET
[1] = target: endogenous Vps26A (human (endogenous in HeLa)) (UniProt O75436); assay: co-IP
RlucII-CLN3 = target: T1, RlucII-CLN3 (UniProt Q13286); assay: FRET or BRET
T1 sequence: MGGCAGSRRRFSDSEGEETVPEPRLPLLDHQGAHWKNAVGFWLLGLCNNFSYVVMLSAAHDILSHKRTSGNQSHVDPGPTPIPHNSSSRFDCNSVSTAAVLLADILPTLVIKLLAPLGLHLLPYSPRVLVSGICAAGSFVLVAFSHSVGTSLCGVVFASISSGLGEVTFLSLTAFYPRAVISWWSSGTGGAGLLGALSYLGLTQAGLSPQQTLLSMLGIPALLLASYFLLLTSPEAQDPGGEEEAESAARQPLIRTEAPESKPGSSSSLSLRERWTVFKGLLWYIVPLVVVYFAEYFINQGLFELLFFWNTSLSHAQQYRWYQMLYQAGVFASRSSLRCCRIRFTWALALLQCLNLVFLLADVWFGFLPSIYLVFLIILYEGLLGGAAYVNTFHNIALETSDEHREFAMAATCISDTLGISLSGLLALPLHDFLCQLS

Vps26A-nLuc = Vps26A-nLuc (UniProt O75436); assay: FRET or BRET
sortilin = sortilin (UniProt Q99523); assay: co-IP
CLN3 = target: T2, CLN3 (UniProt Q13286); assay: co-IP
T2 sequence: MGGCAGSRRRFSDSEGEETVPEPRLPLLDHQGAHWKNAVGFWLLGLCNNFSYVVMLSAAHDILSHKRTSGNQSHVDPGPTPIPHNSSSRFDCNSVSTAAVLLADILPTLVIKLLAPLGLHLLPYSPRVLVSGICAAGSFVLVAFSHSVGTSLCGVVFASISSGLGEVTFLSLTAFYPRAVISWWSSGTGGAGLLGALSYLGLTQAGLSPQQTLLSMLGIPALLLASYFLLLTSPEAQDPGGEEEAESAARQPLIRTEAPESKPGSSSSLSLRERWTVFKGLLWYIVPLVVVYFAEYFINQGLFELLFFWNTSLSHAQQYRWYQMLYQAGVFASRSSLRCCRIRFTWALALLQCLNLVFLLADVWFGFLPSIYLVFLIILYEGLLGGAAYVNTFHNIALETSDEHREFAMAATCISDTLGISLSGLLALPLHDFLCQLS

## PLEKHM1-GFP10 (from UniProt Q9Y4G2 1-1056)
RlucII-Rab7A
  binding: binds

## Rab7A (from UniProt P51149 1-207)
[1]
  binding: binds

## Vps26A-GFP10 (from UniProt O75436 1-327)
RlucII-CLN3
  binding: binds
RlucII-Rab7A
  binding: binds

## endogenous sortilin (from UniProt Q99523 78-831) (receptor)
[1]
  binding: binds

## sortilin-YFP (from UniProt Q99523 78-831) (receptor)
Vps26A-nLuc
  binding: binds
RlucII-CLN3
  binding: binds

B1: CLN5 (protein, UniProt O75503 44-358)
chain: VSGIPSRRHWPVPYKRFDFRPKPDPYCQAKYTFCPTGSPIPVMEGDDDIEVFRLQAPVWEFKYGDLLGHLKIMHDAIGFRSTLTGKNYTMEWYELFQLGNCTFPHLRPEMDAPFWCNQGAACFFEGIDDVHWKENGTLVQVATISGNMFNQMAKWVKQDNETGIYYETWNVKASPEKGAETWFDSYDCSKFVLRTFNKLAEFGAEFKNIETNYTRIFLYSGEPTYLGNETSVFGPTGNKTLGLAIKRFYYPFKPHLPTKEFLLSLLQIFDAVIVHKQFYLFYNFEYWFLPMKFPFIKITYEEIPLPIRNKTLSGL
sortilin
  binding: binds
CLN3
  binding: binds

B2: GFP10-CLN3 (natural protein, UniProt Q13286 1-438, looked up)
chain: MGGCAGSRRRFSDSEGEETVPEPRLPLLDHQGAHWKNAVGFWLLGLCNNFSYVVMLSAAHDILSHKRTSGNQSHVDPGPTPIPHNSSSRFDCNSVSTAAVLLADILPTLVIKLLAPLGLHLLPYSPRVLVSGICAAGSFVLVAFSHSVGTSLCGVVFASISSGLGEVTFLSLTAFYPRAVISWWSSGTGGAGLLGALSYLGLTQAGLSPQQTLLSMLGIPALLLASYFLLLTSPEAQDPGGEEEAESAARQPLIRTEAPESKPGSSSSLSLRERWTVFKGLLWYIVPLVVVYFAEYFINQGLFELLFFWNTSLSHAQQYRWYQMLYQAGVFASRSSLRCCRIRFTWALALLQCLNLVFLLADVWFGFLPSIYLVFLIILYEGLLGGAAYVNTFHNIALETSDEHREFAMAATCISDTLGISLSGLLALPLHDFLCQLS
RlucII-Rab7A
  binding: binds
